According to patent US20110130466A1 (priority 2009, published 2011):
Several values for one entry are separate records, joined by “and”; a condition that tells them apart may be missing. Identical values can stand only once. Like-named read-outs stand apart in the source and are kept apart here. The source gives many values for each of these; only a part stands here.

Test system: PSP patients
Details: individual PSP patient (table line = patient Nr)
Method: Eight men and nine women were treated.
The following clinical factors were analyzed: • 1. Patients and relatives received a protocol to document the frequency of falls. • 2. 12 of the patients were analyzed using posturographic measurements. • 3. Depression was evaluated using clinical criteria (DSM-IV). • 4. Eye movements were orthoptically evaluated (in some cases an electronystagmogram was performed). • 5. Dysarthria was investigated using the Bogenhausener dysarthria scale (BoDys) (ranges from 4=normal until 0=anarthria). • 6. Dysphagia was clinically documented and the introduction of a percutaneous feeding tube (PEG) was recorded. • 7. Incidence of pneumonia was recorded. • 8. Impulse control disorder and hallucinations were recorded. • 9. Possible side effects were recorded. • 10.

C#CCN[C@@H]1CCc2ccccc21 [rasagiline, R(+)-N-propargyl-1-aminoindan]
frequency of falls (1 Month of rasagiline 1 mg/day): 13 falls/week and 25 falls/week | frequency of falls (2 Months of rasagiline 1 mg/day): 21 falls/week and 12 falls/week and 27 falls/week | frequency of falls (3 Months of rasagiline 1 mg/day): 12 falls/week | frequency of falls (6 Months of rasagiline 1 mg/day): 13 falls/week and 22 falls/week and 25 falls/week | frequency of falls (7 Months of rasagiline 1 mg/day): 18 falls/week and 26 falls/week | frequency of falls (8 Months of rasagiline 1 mg/day): 16 falls/week and 29 falls/week and 28 falls/week | frequency of falls (9 Months of rasagiline 1 mg/day): 15 falls/week and 26 falls/week | frequency of falls (10 Months of rasagiline 1 mg/day): 18 falls/week and 24 falls/week | frequency of falls (11 Months of rasagiline 1 mg/day): 25 falls/week and 18 falls/week | frequency of falls (12 Months of rasagiline 1 mg/day): 20 falls/week and 29 falls/week
